± gives the standard deviation of the averaged measurements. The list shows a part of the results. The data scatter; read single values as rough.
What follows are compounds tested on primary human hepatocytes (assay: hepatic nuclei reduction relative to DMSO (100 - % of negative control); higher = more toxic to hepatocytes). Conditions: 10 µM; assay mode: Prophylactic (treated before or shortly after infection), fixed day 6 post-infection.

| Structure (SMILES) | hepatic nuclei reduction [%] |
| --- | --- |
| Cc1nc(Nc2ncc(N3CCN(C)C(C)C3)c(Nc3cc(C)n(C)n3)n2)cc(C2CC2)c1F (configuration not stated) | -9 |
| O=C(c1ccc(F)cc1)N(CCNc1ccccc1)c1ccccc1 | -4 |
| CCOc1ccc(C2N(C)c3ccccc3N2C)cc1 | 14 |
| COc1ccc(-c2cc(=O)oc3c4c(ccc23)OCN(Cc2ccc(F)cc2)C4)cc1 | 0 |
| Cc1cc(C(=O)Nc2ccc(-c3ccccc3)cc2)no1 | -11 |
| CNC(=O)c1cc(S(=O)(=O)N2CCN(c3ccccn3)CC2)cs1 | -10 |
| CC(C)n1nc(-c2cc3c(Cl)cccc3[nH]2)c2c(N)ncnc21 | 6 |
| CCCCN(CCCC)CCC(O)c1cc2c(Cl)cc(Cl)cc2c2cc(C(F)(F)F)ccc12 (configuration not stated) | 4 |
| COCCNC(=O)c1ccc(OC2CCN(Cc3ccc(F)c(F)c3)CC2)c(Cl)c1 | -16 |
| Cc1cnc(N2CCN[C@@H](Cc3ccccc3)C2)nc1Oc1ccc(-n2ccnc2)cc1 | -9 |
| COc1ccc(CNC2CCN(c3ccc(NC(=O)c4cccc(Cl)c4)cc3)CC2)cc1OC | -2 |
| O=C(Nc1nc(-c2ccccn2)cs1)c1ccccc1Br | -3 |
| CC1=Nc2ccc(Cl)cc2C(O)(c2ccc(C)cc2)N1CCN1CCCCC1 (configuration not stated) | -8 |
| COc1ccc2nc3cc(Cl)ccc3c(Nc3cc(CN4CCCC4)c(O)c(CN4CCCC4)c3)c2n1 | 1 |
| COc1ccc2nc(C)cc(OCC(=O)NCc3ccccc3)c2c1 | -11 |
| OC(CNC1CCCCC1)Cn1c2ccc(I)cc2c2cc(I)ccc21 (configuration not stated) | 10 |
| COc1ccc(NC(=O)C2c3ccccc3C(=O)N(CC(C)C)C2c2cccs2)cc1 (configuration not stated) | 0 |
| CNc1nnc(Sc2cnn(-c3ccccc3)c(=O)c2Cl)s1 | 14 |
| N#CCN(CCCCN1CCN(c2ccc(F)cc2)CC1)C(=O)OCc1ccccc1 | -5 |
| CC(C)(C)CC(C)(C)NCC(O)COc1ccc(Cl)cc1Cl (configuration not stated) | 33 |
| CCOc1cc2c(cc1OCC)C(c1cc(OC)c(O)cc1Cl)NCC2 (configuration not stated) | -12 |
| COc1cccc(-c2nn(C)c3sc(C(=O)NCCN4CCN(c5ccccc5F)CC4)cc23)c1 | -3 |

Same assay, conditions: 10 µM; assay mode: Radical Cure (treated from day 5 post-infection for 3 days), fixed day 8 post-infection

| Structure (SMILES) | hepatic nuclei reduction [%] |
| --- | --- |
| Cc1ccc2nc(Cl)c(CNCc3cccs3)cc2c1 | -2 |
| CC(C)(CN)c1nc(-c2ccc(Cl)c(O)c2)c(-c2ccnc(N)n2)[nH]1 | -1 |
| O[C@H](c1cc(C(F)(F)F)nc2c(C(F)(F)F)cccc12)[C@@H]1CCCCN1 | 5.5 ± 6.4 |
| CCOC(=O)c1cnc2c(C)cc(C)cc2c1Nc1ccc(OC)c(OC)c1 | -2 |
| Nc1nc(O)c(Br)c(-c2ccccc2)n1 | 4 |
| O=C(NC1CCN(Cc2ccccc2)CC1)c1cc(-c2ccncc2)nc2ccc(Cl)cc12 | 0 |
| OC[C@H]1O[C@@H](n2c3ccc(Cl)cc3c3c(-c4cc5ccccc5o4)ncnc32)C(O)[C@H]1O (some centres not stated) | -3 |
| Nc1ncnc2c1ncn2C[C@@H](O)[C@@H](O)C(=O)O | -4 |
| CNc1cc(C)nc(C2CN(C(=O)c3n[nH]c4ccccc34)CCO2)c1 (configuration not stated) | -3 |
| Cc1ccc(NC(=O)CC2COc3ccccc3O2)cc1Cl (configuration not stated) | -5 |
| COc1cc2cc(C(=O)Nc3ccccc3)c(N)nc2cc1OC | 1 |
| CCc1ccc(C(NCc2nc(N)nc(N(C)C)n2)C(C)C)cc1 (configuration not stated) | -6 |
| OC(CNCC1CCCO1)Cn1c2ccc(Cl)cc2c2cc(Cl)ccc21 (configuration not stated) | -5 |
| c1ccc(Cn2c(N=Nc3c(Nc4ccccc4)ccc4ccccc34)nc3ccccc32)cc1 | 2 |
| Oc1ccccc1CN1CCC2(CCCN(Cc3ccccc3F)C2)C1 (configuration not stated) | -11 |
| Cc1c(C)n(Cc2ccc(F)cc2)c2ccc(C(=O)NCc3ccco3)cc12 | -3 |
| CC(C)N=C(N)N=C(N)Nc1ccc(Cl)cc1 | 5 |
| Cc1cc(OCC(=O)NCc2ccccc2)c2cc(Br)ccc2n1 | -3 |
| Cc1nc(Nc2ncc(N3CCN(C)C(C)C3)c(Nc3cc(C)n(C)n3)n2)cc(C2CC2)c1F (configuration not stated) | -6 |
| O=C(c1ccc(F)cc1)N(CCNc1ccccc1)c1ccccc1 | -10 |
| CCOc1ccc(C2N(C)c3ccccc3N2C)cc1 | 0 |
| COc1ccc(-c2cc(=O)oc3c4c(ccc23)OCN(Cc2ccc(F)cc2)C4)cc1 | -7 |
| Cc1cc(C(=O)Nc2ccc(-c3ccccc3)cc2)no1 | -5 |
| CNC(=O)c1cc(S(=O)(=O)N2CCN(c3ccccn3)CC2)cs1 | -6 |
| CC(C)n1nc(-c2cc3c(Cl)cccc3[nH]2)c2c(N)ncnc21 | 3 |

From the supplement of paper PMC8497498
